In publication PMC10163288:
Some of the results follow.

B1: il10ra_site1_sap_19_mot_HHH_b2_00943_af2_000000149_0001_1_17_H_._490a3029bfe5beb5158d6c054c504315_0001_1_0001_0000200008_0000002_0_0001_af2pred_0001 (protein)
chain: SSSSSEEQEVAELLFRVIELWARGNPEEAEEVLKEAERLAKELGDEELERAVEIAKRFVENSSSS
B2: il10ra_site1_sap_24_mot_HHH_b2_01205_000000166_0001_1_19_H_._HHH_b1_08543_0001_0000100008_0000002_0_0001 (protein)
chain: SSSSQEAFKRAKELIERIIQLYEEGNPEEAEKLLEELEELARERGNWALRWTVRLLRRILSSSSS
B3: il10ra_site1_sap_10_mot_HHH_b2_04646_000000019_0001_1_20_H_._HHH_b1_08608_af2_0001_0000200016_0000001_0_0001_af2pred_dldesign_0_af2pred (protein)
chain: SSSSSAKKAKVEELIAKAKKLEDPVERATVLREAHLLADEIKDAEAWKAVVDAAVELYKESSSSS
B4: il10ra_site1_sap_26_mot_HHH_b2_06857_af2_000000179_0001_42_54_H_._HHH_b2_06375_0001_0000600034_0000002_0_0001_af2pred_0001 (protein)
chain: SSSTFTERVIELLKRVIELDHEGDLEEAEELLEEAKRLAEEGNNLALRKSVEHLQRIVELTSSSS
B5: il10ra_site1_sap_18_mot_HHH_b2_02745_000000002_0001_1_20_H_._HHH_b2_07311_0001_0000300008_0000002_0_0001_af2pred_0001 (protein)
chain: SSSSSQEELELRVLIRLAKSALRDGNPRAARILLEFARELAEELGTPLVEEVERLLEELNSSSSS
B6: il10ra_site1_sap_22_mot_HHH_b2_02736_000000092_0001_22_38_H_._HHH_b1_03416_af2_0001_0000100002_0000002_1_0001 (protein)
chain: SSSSSVVEIAQEALHLAAQLNDEEAFQAIWELVKKYVETGDERIREELEELLEELEEELDSSSSS
B7: il10ra_site1_sap_28_mot_HHH_b1_05377_000000047_0001_42_55_H_._HHH_b1_07584_af2_0001_0000100001_0000001_0_0001 (protein)
chain: SSSSDEVREEVEELIEEVEELLRRGNPEEAMRVLAEALQLVLRAGDEELLRELWELAKKLASSSS
B8: il10ra_site1_sap_18_mot_HHH_b1_00682_000000235_0001_1_20_H_._HHH_b2_01115_0001_0000400025_0000001_0_0001 (protein)
chain: SSSDAEQATRAAEHALEVLLRDGNPEEAEIALEFWARLDEADGNPELAEELREIFEELKEKLSSS
B9: il10ra_site1_sap_25_mot_HHH_b2_07873_af2_000000172_0001_1_19_H_._HHH_b1_04175_0001_0000100003_0000001_0_0001_af2pred_0001 (protein)
chain: SKEDRIRLSAENAADLAGVPSFEVEVHNGHLEVTLEGNDEAVRQAELLIRLAAKLLGIPVEVTTE
B10: il10ra_site1_normal_mot_8756ee2cf497b5429c717dfc0c0bcfd6_0001_000000186_0001_1_13_H_._HHH_b1_05110_0001_0000500026_0000002_0_af2pred_0001 (protein)
chain: SSSSNEELERVYRLLRRLAELLSEGDDEEARELIEEAKQLIEELNNETLRAILEFLEKILNSSSS
B11: il10ra_site1_sap_20_mot_7b9cde51a6333c7db752d4c93e9fe982_0001_000000133_0001_1_12_H_._HHH_b2_00556_0001_0000100005_0000001_0_0001 (protein)
chain: SSSSSSSSEEEVEEILEEAEKVDDQEEANEILLEALKLAAELQDPEALRLVWRVVERLSSSSSSS
B12: il10ra_site1_normal_mot_HHH_b2_03425_000000200_0001_22_39_H_._HHH_b2_00266_0001_0000500010_0000002_0 (protein)
chain: SSSSDESEEIYELLREAIELIREGNPEEAREVLEQARELAEENNNENLLFIVEFLERELNSSSSS
B13: il10ra_site1_sap_15_mot_HHH_b1_05357_000000034_0001_23_39_H_._HHH_b2_04748_0001_0000300023_0000002_0_0001 (protein)
chain: SSSSSDREAEQRAKALLWFAKWIRNEDAARIVLERAEEIAEELGDEELLEEIRELLEKLKSSSSS
B14: il10ra_site1_normal_mot_HHH_b2_03220_af2_000000223_0001_23_40_H_._HHH_b1_04932_0001_0000500057_0000001_0 (protein)
chain: SSSSSEETERIWELLRRILELIANGDPEEAEELLEEVRELIEEAGSEVLRFALRAIERALNSSSS
B15: il10ra_site1_normal_mot_HHH_b1_03333_000000091_0001_1_17_H_._HHH_b1_08449_af2_0001_0000300014_0000002_0 (protein)
chain: SSSSTEEYEELKRLIEEIVKAIRNNDPELVEELLRELEELIEETNNIAAKFSLRILEEALSSSSS
B16: il10ra_site1_normal_mot_HHH_b1_05757_000000171_0001_42_57_H_._cd9e2f3926f312894f93ac78c729c102_0001_1_0001_0000100001_0000001_0_af2pred_dldesign_0_af2pred (protein)
chain: VELLVEAIKRLSEKHPDDPEVQALVREAARLLLEGKPEEAAKLLKEAAELAGDAEVLALVEKVLE
B17: il10ra_site1_normal_mot_HHH_b2_06199_000000213_0001_1_17_H_._HHH_b1_05284_0001_0000100001_0000001_0 (protein)
chain: SSSSSNEEEAQKAARRLLEAAKQVEDPERVRLALRFALFLARQANDEELEEEIEELLKEYSSSSS
B18: il10ra_site1_normal_mot_HEEHE_1605_000000211_0001_40_56_H_._544ef0e38e907b7890d4414ebae48784_0001_1_0001_0000100002_0000001_0_af2pred_0001 (protein)
chain: TEEELIEELAKLLGLPPETVRLALERLEELEGDPERAVRSFLLALKLSGKLTPEVEELLEKIART
B19: il10ra_site1_sap_16_mot_HHH_b1_06914_000000033_0001_1_18_H_._HHH_b2_07672_0001_0000100004_0000002_0_0001 (protein)
chain: SSSSSSDEVLELSLEAFRLSLRGDPEEAREVLEEALELARERGDERLAHVIEDLLKAASSSSSSS
B20: il10ra_site1_normal_mot_HHH_b2_00984_000000042_0001_1_20_H_._HHH_b2_04396_af2_0001_0000400016_0000001_0 (protein)
chain: SSSSDEEERLRELLERLEELLEEGDLRELSRLAQEALRLAYRLGDKETLQEIWELIRRLHSSSSS
B21: il10ra_site1_sap_25_mot_HHH_b1_06837_000000150_0001_20_37_H_._HHH_b2_02609_0001_0000600038_0000001_0_0001 (protein)
chain: SSSSSSVEELAEEAEELARERGDEEALTLVEAIQRLAEQGILDPRFAELSLELLIELLRESSSSS
B22: il10ra_site1_sap_20_mot_HHH_b1_02997_000000220_0001_39_52_H_._HHH_b2_01069_af2_0001_0000100007_0000001_1_0001_af2pred_0001 (protein)
chain: SSSSSSEERRRAVELLREAARIDDEEKAREIAEEVEELAEELNDPVLKIAVRFLLEQLKSSSSSS
B23: il10ra_site1_normal_mot_HHH_b2_06979_000000158_0001_42_57_H_._HHH_b1_03152_0001_0000200036_0000001_0 (protein)
chain: SSSSDEVEELYELVRELAELLHEGDEERFEEVLEQAKRLAEEANDRLTLINLEFLERDLKSSSSS
B24: il10ra_site1_normal_mot_HHH_b2_03183_af2_000000055_0001_40_56_H_._HHH_b2_08078_0001_0000100001_0000002_0 (protein)
chain: SSSSNREELIEAALRLLEQAIELGDPRAARFLIIAIKIAVEETNDEEAREELERLEELLNSSSSS

biological target: il10ra, Q13651; assay: yeast display titration

Apparent Kd, inactive:
B1 no binding seen, B2 no binding seen, B3 no binding seen, B4 no binding seen, B5 no binding seen, B6 no binding seen, B7 no binding seen, B8 no binding seen, B9 no binding seen, B10 no binding seen, B11 no binding seen, B12 no binding seen, B13 no binding seen, B14 no binding seen, B15 no binding seen, B16 no binding seen, B17 no binding seen, B18 no binding seen, B19 no binding seen, B20 no binding seen, B21 no binding seen, B22 no binding seen, B23 no binding seen, B24 no binding seen
